PubChem BioAssay AID1259405, NCATS | 2018
This is a random part of about 50,000 deposited reagents. Of all reagents, about 4,000 (8%) are marked active. 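Mouse siRNA library applied to hamster cells; one well for each siRNA.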 Entries without a mark were called inactive. Reagent sequences are not shown.

- Purpose: 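Silenced genes that increase secreted GFP made by CHO cells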 (primary screen)
- Cells: Chinese hamster CHO-K1 ovary cells with stable secreted eGFP expression
- Reagent: single siRNA against mouse genes, 0.8 pmol siRNA per well (2 µl of 400 nM stock)
- Duration: 3 days
- Measured: 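Per-well intracellular GFP measured by laser scanning cytometry, plus viability from ATP luminescence, each relative to plate median of non-targeting control wells, in %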
- Scale: GFP, % of control: higher = more GFP per well, higher productivity; viability (ATP), % of control: higher = more viable cells (more ATP)
- Rule for the call: 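a knock-down is called active if GFP reaches 120% or more of non-targeting control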

target gene | PubChem SID | GFP, % of control | viability (ATP), % of control
Zg16 | SID363543589 | 150 (active) | 75.1
Zg16 | SID363553082 | 83.7 | 66.9
Zg16 | SID363558930 | 70.7 | 75.7
Ephx3 | SID363569796 | 89.1 | 66.4
Ephx3 | SID363576836 | 80.7 | 78.9
Ephx3 | SID363578244 | 76.5 | 83.9
Apobec1 | SID363569891 | 77.4 | 94.9
Apobec1 | SID363576931 | 170 (active) | 119
Apobec1 | SID363578339 | 82.1 | 96.7
Vmn1r29 | SID363556670 | 66.7 | 79.3
Vmn1r29 | SID363563574 | 103 | 75.2
Vmn1r29 | SID363587120 | 78.3 | 93.3
Trpm2 | SID363544852 | 67.5 | 63.6
Trpm2 | SID363551180 | 76.1 | 81.8
Trpm2 | SID363557729 | 66.1 | 76.2
Xpnpep2 | SID363574332 | 80.3 | 76.4
Xpnpep2 | SID363575388 | 84.8 | 68.8
Xpnpep2 | SID363579964 | 52.1 | 52.2
Edn2 | SID363541457 | 86.9 | 75.7
Edn2 | SID363556084 | 69.1 | 77.3
Edn2 | SID363566373 | 70.4 | 87.3
Csn1s2a | SID363550026 | 62.5 | 63.3
Csn1s2a | SID363564535 | 81.8 | 46.3
Csn1s2a | SID363588080 | 85.9 | 99.4
Pdxdc1 | SID363556619 | 47.1 | 30.3
Pdxdc1 | SID363563523 | 118 | 78.8
Pdxdc1 | SID363587069 | 71.7 | 85
Misp | SID363552222 | 74.8 | 92.9
Misp | SID363585358 | 106 | 98.9
Misp | SID363585709 | 103 | 111
Xrcc4 | SID363556787 | 62.6 | 51.4
Xrcc4 | SID363563691 | 93.4 | 86
Xrcc4 | SID363587237 | 92.2 | 99.8

The list goes on, starting with the last 6 of the part before.
target gene | PubChem SID | GFP, % of control | viability (ATP), % of control
Misp | SID363552222 | 74.8 | 92.9
Misp | SID363585358 | 106 | 98.9
Misp | SID363585709 | 103 | 111
Xrcc4 | SID363556787 | 62.6 | 51.4
Xrcc4 | SID363563691 | 93.4 | 86
Xrcc4 | SID363587237 | 92.2 | 99.8
Ajuba | SID363572142 | 83.8 | 88.8
Ajuba | SID363573902 | 49.6 | 73.4
Lrp12 | SID363575095 | 29.5 | 24.9
Lrp12 | SID363580727 | 48.3 | 56.4
Lrp12 | SID363582839 | 73.9 | 88.1
Nlrc4 | SID363572959 | 65.1 | 66.7
Nlrc4 | SID363577535 | 77.6 | 51.8
Nlrc4 | SID363581055 | 72.8 | 68.1
Lss | SID363581633 | 69.4 | 122
Lss | SID363589127 | 97.9 | 104
Jmy | SID363540467 | 45.2 | 60.9
Jmy | SID363542219 | 72.4 | 79
Jmy | SID363567135 | 79.9 | 86.8
Pak1ip1 | SID363555400 | 83.8 | 85.6
Pak1ip1 | SID363564061 | 62.3 | 51.5
Pak1ip1 | SID363587607 | 109 | 97.2
Tmc4 | SID363547786 | 101 | 39.5
Tmc4 | SID363558555 | 57.6 | 66.3
Tmc4 | SID363560313 | 63.7 | 106
Cyp2c54 | SID363547700 | 134 (active) | 59.4
Cyp2c54 | SID363558469 | 66.4 | 75.3
Cyp2c54 | SID363560227 | 91 | 95.1
Fgf2os | SID363542812 | 73.1 | 67.4
Fgf2os | SID363546329 | 75.5 | 69.3
Fgf2os | SID363548085 | 52.8 | 60.8
Itgb7 | SID363568745 | 56.8 | 65.2
Itgb7 | SID363576137 | 80.3 | 73.7
Itgb7 | SID363578953 | 40.5 | 15.4
Ppm1k | SID363575264 | 103 | 83.2
Ppm1k | SID363580896 | 84.2 | 55.2
Ppm1k | SID363583008 | 97.2 | 74.5
Nat2 | SID363570561 | 103 | 87.1
Nat2 | SID363579361 | 62.1 | 93.3
Nat2 | SID363583233 | 97.5 | 96.4
2310033P09Rik | SID363543579 | 49.5 | 39.6
2310033P09Rik | SID363553072 | 101 | 60.3
2310033P09Rik | SID363558920 | 45.4 | 64.5
Ccdc86 | SID363539747 | 57.1 | 79.5
Ccdc86 | SID363561048 | 92.6 | 64.4
Ccdc86 | SID363565138 | 57 | 54.3
Cyb5d2 | SID363542854 | 87.6 | 46.6
Cyb5d2 | SID363546371 | 52.2 | 52.3
Cyb5d2 | SID363548127 | 65 | 89.6
Rmdn2 | SID363546523 | 34.2 | 40.2
Rmdn2 | SID363548279 | 54.2 | 86.4
Rmdn2 | SID363560457 | 92.3 | 91.6
Ssxb13 | SID363541036 | 1.03 | 179
Ssxb13 | SID363555663 | 65.7 | 82.3
Ssxb13 | SID363565952 | 103 | 87.5
Ccdc186 | SID363542853 | 132 (active) | 104
Ccdc186 | SID363546370 | 41.8 | 41.6
Ccdc186 | SID363548126 | 84.3 | 105
